# In US7238491:
# Sequences of proteins named here, by UniProt entry; tags and fusion partners are left off.
# UniProt P19793: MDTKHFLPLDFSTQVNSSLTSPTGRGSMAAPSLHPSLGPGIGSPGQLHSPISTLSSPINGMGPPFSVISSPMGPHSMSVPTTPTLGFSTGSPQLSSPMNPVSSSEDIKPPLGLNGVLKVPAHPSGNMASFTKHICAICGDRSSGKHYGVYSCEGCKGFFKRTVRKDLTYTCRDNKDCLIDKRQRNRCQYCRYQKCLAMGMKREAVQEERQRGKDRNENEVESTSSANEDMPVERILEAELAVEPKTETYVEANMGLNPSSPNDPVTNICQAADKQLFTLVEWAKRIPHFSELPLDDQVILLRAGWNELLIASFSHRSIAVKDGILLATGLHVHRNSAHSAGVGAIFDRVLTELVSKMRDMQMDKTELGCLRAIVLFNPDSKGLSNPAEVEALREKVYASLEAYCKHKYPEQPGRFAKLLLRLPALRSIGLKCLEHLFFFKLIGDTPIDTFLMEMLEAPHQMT
# These are yes or no findings as the source states them, for the method shown. Some entries that bind do so weakly or less than the wild type.
# Tests used:
# [1] = target: human 9-cis retinoic acid receptor RXR (hRXR), synthesized in vitro (human) (UniProt P19793); assay: band shift assay, in vitro translated proteins on radiolabeled CYP3A4 IR6 oligonucleotide; neither protein bound the DNA alone
# [2] = target: human 9-cis retinoic acid receptor RXR (hRXR), synthesized in vitro (human) (UniProt P19793); assay: band shift assay, in vitro translated proteins on radiolabeled CYP3A4 IR6 oligonucleotide
binding [1],binding [2],Binder
binds,,"human pregnane X receptor (hPXR), synthesized in vitro (receptor) LEVRPKESWNHADFVHCEDTESVPGKPSVNADEEVGGPQICRVCGDKATGYHFNVMTCEGCKGFFRRAMKRNARLRCPFRKGACEITRKTRRQCQACRLRKCLESGMKKEMIMSDEAVEERRALIKRKKSERTGTQPLGVQGLTEEQRMMIRELMDAQMKTFDTTFSHFKNFRLPGVLSSGCELPESLQAPSREEAAKWSQVRKDLCSLKVSLQLRGEDGSVWNYKPPADSGGKEIFSLLPHMADMSTYMFKGIISFAKVISYFRDLPIEDQISLLKGAAFELCQLRFNTVFNAETGTWECGRLSYCLEDTAGGFQQLLLEPMLKFHYMLKKLQLHEEEYVLMQAISLFSPDRPGVLQHRVVDQLQEQFAITLKSYIECNRPQPAHRFLFLKIMAMLTELRSINAQHTQRLLRIQDIHPFATPLMQELFGITGS"
,binds,"mouse pregnane X receptor 1 (mPXR1), synthesized in vitro (receptor, UniProt O54915 1-431, looked up) MRPEESWSRVGLVQCEEADSALEEPINVEEEDGGLQICRVCGDKANGYHFNVMTCEGCKGFFRRAMKRNVRLRCPFRKGTCEITRKTRRQCQACRLRKCLESGMKKEMIMSDAAVEQRRALIKRKKREKIEAPPPGGQGLTEEQQALIQELMDAQMQTFDTTFSHFKDFRLPAVFHSGCELPEFLQASLLEDPATWSQIMKDRVPMKISLQLRGEDGSIWNYQPPSKSDGKEIIPLLPHLADVSTYMFKGVINFAKVISYFRDLPIEDQISLLKGATFEMCILRFNTMFDTETGTWECGRLAYCFEDPNGGFQKLLLDPLMKFHCMLKKLQLHKEEYVLMQAISLFSPDRPGVVQRSVVDQLQERFALTLKAYIECSRPYPAHRFLFLKIMAVLTELRSINAQQTQQLLRIQDSHPFATPLMQELFSSTDG"
